Experimental data reported in doi:10.1101/825018.
These are yes or no findings as the source states them, for the method shown. Binding seen in cells or lysates may run through a third protein. Where a sequence is shown, tags or fusion partners need not be part of it. Each block holds one binder with its values, some of them ahead of it.

Experiments:
[1] = biological target: ZP1^WT (wild-type zona pellucida glycoprotein 1) (UniProt P60852); assay: co-IP
[2] = biological target: T1, ZP1^WT (wild-type zona pellucida glycoprotein 1), P60852; assay: co-IP; details: remark: other sources report otherwise
T1 chain: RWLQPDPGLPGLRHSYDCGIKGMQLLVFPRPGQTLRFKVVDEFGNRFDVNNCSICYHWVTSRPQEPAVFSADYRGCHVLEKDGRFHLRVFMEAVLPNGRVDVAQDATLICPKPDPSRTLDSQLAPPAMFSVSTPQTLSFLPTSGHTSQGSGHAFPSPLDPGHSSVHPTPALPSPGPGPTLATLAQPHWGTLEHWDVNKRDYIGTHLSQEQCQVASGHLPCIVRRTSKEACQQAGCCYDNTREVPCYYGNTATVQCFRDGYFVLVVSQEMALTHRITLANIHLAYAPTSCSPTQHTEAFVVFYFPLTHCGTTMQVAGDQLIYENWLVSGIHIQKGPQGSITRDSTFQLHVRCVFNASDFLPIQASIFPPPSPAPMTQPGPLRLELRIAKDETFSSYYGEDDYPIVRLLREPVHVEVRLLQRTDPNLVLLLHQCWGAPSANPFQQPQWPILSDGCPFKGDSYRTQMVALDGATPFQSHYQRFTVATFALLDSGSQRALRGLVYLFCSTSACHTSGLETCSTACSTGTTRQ

- binding [1]: no binding
B1: ZP4 (zona pellucida glycoprotein 4) (protein, UniProt Q12836 19-462)
chain: GQHKPEAPDYSSVLHCGPWSFQFAVNLNQEATSPPVLIAWDNQGLLHELQNDSDCGTWIRKGPGSSVVLEATYSSCYVTEWDSHYIMPVGVEGAGAAEHKVVTERKLLKCPMDLLARDAPDTDWCDSIPARDRLPCAPSPISRGDCEGLGCCYSSEEVNSCYYGNTVTLHCTREGHFSIAVSRNVTSPPLLLDSVRLALRNDSACNPVMATQAFVLFQFPFTSCGTTRQITGDRAVYENELVATRDVKNGSRGSVTRDSIFRLHVSCSYSVSSNSLPINVQVFTLPPPFPETQPGPLTLELQIAKDKNYGSYYGVGDYPVVKLLRDPIYVEVSILHRTDPYLGLLLQQCWATPSTDPLSQPQWPILVKGCPYIGDNYQTQLIPVQKALDLPFPSHHQRFSIFTFSFVNPTVEKQALRGPVHLHCSVSVCQPAETPSCVVTCPDL

- binding [2]: no binding
B2: ZP3 (zona pellucida glycoprotein 3), P21754 23-350 (protein)
chain: QPLWLLQGGASHPETSVQPVLVECQEATLMVMVSKDLFGTGKLIRAADLTLGPEACEPLVSMDTEDVVRFEVGLHECGNSMQVTDDALVYSTFLLHDPRPVGNLSIVRTNRAEIPIECRYPRQGNVSSQAILPTWLPFRTTVFSEEKLTFSLRLMEENWNAEKRSPTFHLGDAAHLQAEIHTGSHVPLRLFVDHCVATPTPDQNASPYHTIVDFHGCLVDGLTDASSAFKVPRPGPDTLQFTVDVFHFANDSRNMIYITCHLKVTLAEQDPDELNKACSFSKPSNSWFPVEGSADICQCCNKGDCGTPSHSRRQPHVMSQWSRSASRN
